PubChem BioAssay AID1259327 | Drosophila RNAi Screening Center – 2017
Shown is an unselected part of about 3,100 reagents. Of all reagents, 378 (12%) were called active. 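Hits include both directions; z-score sign shows ATP rise or fall; raw luminescence values are not plate-normalised.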 The numbers tell different reagents against one gene apart. Names joined by + are all predicted targets of the reagent. Not given: the amount of reagent.

Screen: 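Baseline ATP after transmembrane-protein gene knock-down with water vehicle only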
Cells: Drosophila S2R+ cells
Reagents: long dsRNA against Drosophila genes
Duration: 5 days (water added on day 4, read one day later)
Treatment: water added as vehicle, no metal, one day before read-out
Measurement: 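Total ATP measured by luciferase light, scaled to plate mean, duplicates averaged, then z-scored across plates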
Reading the numbers: ATP z-score: higher = more total ATP than typical wells; ATP luminescence: higher = more total ATP
Rule for the call: 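Called active when the ATP z-score exceeds 1.5 or falls below -1.5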
Meaning of the calls: active = hit: ATP up or down; inactive = no clear ATP change

no.	target	reagent no.	ATP z-score, duplicate mean	ATP luminescence, replicate 1 (RLU)	ATP luminescence, replicate 2 (RLU)	Call
1	Gr64d + Gr64e	1	-1.09	7.94e5	5.99e5	inactive
2	Gr64d + Gr64e	2	-0.856	3.93e5	4.21e5	inactive
3	Gr64d + Gr64e	3	-0.251	4.52e5	4.44e5	inactive
4	CG12914	1	-1.68	4.17e5	5.18e5	active
5	Or43a	1	1.22	7.84e5	6.76e5	inactive
6	MFS9	1	-0.152	6.95e5	6.85e5	inactive
7	CG44247 + veg (retired record)	1	-0.125	6.97e5	5.19e5	inactive
8	CG11425	1	0.31	9.48e5	9.25e5	inactive
9	CG11425	2	-0.285	8.74e5	7.11e5	inactive
10	Or85f	1	-0.524	2.72e5	7.13e5	inactive
11	Or85f	2	-0.554	3.92e5	4.64e5	inactive
12	Cpes	1	0.99	9.92e5	1.11e6	inactive
13	PGRP-SB1	1	0.835	1.01e6	1.00e6	inactive
14	ZnT41F	1	-0.129	6.74e5	7.61e5	inactive
15	CG5687	1	-0.151	6.70e5	7.61e5	inactive
16	CG5687	2	-1.78	3.32e5	3.58e5	active
17	CG31999	1	-0.0488	6.24e5	8.94e5	inactive
18	CG31999	2	-0.0584	7.45e5	7.27e5	inactive
19	Tango5	1	-0.932	6.26e5	5.94e5	inactive
20	Tango5	2	-0.647	7.68e5	7.24e5	inactive
21	Pss	1	-0.777	8.14e5	7.74e5	inactive
22	Pss	2	0.486	5.05e5	4.66e5	inactive
23	CG13920	1	-0.883	6.32e5	6.41e5	inactive
24	CG13920	2	-0.768	4.29e5	3.77e5	inactive
25	ogre	1	-0.298	6.89e5	6.61e5	inactive
26	ogre	2	0.0726	8.18e5	9.01e5	inactive
27	Tapdelta	1	-0.168	6.88e5	7.38e5	inactive
28	Tapdelta	2	-0.363	4.62e5	3.98e5	inactive
29	Or98a	1	-1.52	5.22e5	6.43e5	active
30	Or98a	2	-0.215	8.44e5	8.02e5	inactive
31	wdp	1	0.871	9.70e5	8.89e5	inactive
32	CG12974	1	0.238	1.02e6	8.37e5	inactive
33	CG12974	2	-1.04	3.79e5	4.10e5	inactive
34	Ih	1	0.338	8.03e5	7.30e5	inactive
35	Ih	2	-1.06	6.80e5	7.59e5	inactive
36	18w	1	-0.588	8.26e5	6.84e5	inactive
37	GC1	1	-0.308	2.55e5	8.05e5	inactive
38	GC1	2	-1.16	6.86e5	6.82e5	inactive
39	tipE	1	-1.18	5.51e5	6.60e5	inactive
40	tipE	2	-0.744	5.41e5	4.92e5	inactive
41	Alg7	1	-1.18	3.57e5	4.38e5	inactive
42	Alg7	2	1.24	8.45e5	8.71e5	inactive
43	InR	1	-0.686	2.91e5	6.30e5	inactive
44	InR	2	-1.09	4.57e5	5.18e5	inactive
45	InR	3	-0.356	5.08e5	5.91e5	inactive
46	CG13579	1	-1.62	5.50e5	5.58e5	active
47	CG13579	2	0.453	9.64e5	1.07e6	inactive

Laid out differently: entries from further up.
target | reagent no. | ATP z-score, duplicate mean | ATP luminescence, replicate 1 (RLU) | ATP luminescence, replicate 2 (RLU) | Call
Tapdelta | 1 | -0.168 | 6.88e5 | 7.38e5 | inactive
Tapdelta | 2 | -0.363 | 4.62e5 | 3.98e5 | inactive
Or98a | 1 | -1.52 | 5.22e5 | 6.43e5 | active
Or98a | 2 | -0.215 | 8.44e5 | 8.02e5 | inactive
wdp | 1 | 0.871 | 9.70e5 | 8.89e5 | inactive
CG12974 | 1 | 0.238 | 1.02e6 | 8.37e5 | inactive
